No constants are given. Whether binding was seen depends on the method and setting. Binding seen in cells or lysates may run through a third protein. Some binding calls cover weakened binding; strength is not graded here.
Legend:
[1] = target: T1, OAS3 (human (endogenous in Flo-1)) (UniProt Q9Y6K5); experiment: cross-linking; in-situ DSS cross-linking (0.5 mM, 5 min, 37 °C, in PBS) of untreated Flo-1 cells (no IFNα); LC-MS/MS, SIM-XL
T1 sequence: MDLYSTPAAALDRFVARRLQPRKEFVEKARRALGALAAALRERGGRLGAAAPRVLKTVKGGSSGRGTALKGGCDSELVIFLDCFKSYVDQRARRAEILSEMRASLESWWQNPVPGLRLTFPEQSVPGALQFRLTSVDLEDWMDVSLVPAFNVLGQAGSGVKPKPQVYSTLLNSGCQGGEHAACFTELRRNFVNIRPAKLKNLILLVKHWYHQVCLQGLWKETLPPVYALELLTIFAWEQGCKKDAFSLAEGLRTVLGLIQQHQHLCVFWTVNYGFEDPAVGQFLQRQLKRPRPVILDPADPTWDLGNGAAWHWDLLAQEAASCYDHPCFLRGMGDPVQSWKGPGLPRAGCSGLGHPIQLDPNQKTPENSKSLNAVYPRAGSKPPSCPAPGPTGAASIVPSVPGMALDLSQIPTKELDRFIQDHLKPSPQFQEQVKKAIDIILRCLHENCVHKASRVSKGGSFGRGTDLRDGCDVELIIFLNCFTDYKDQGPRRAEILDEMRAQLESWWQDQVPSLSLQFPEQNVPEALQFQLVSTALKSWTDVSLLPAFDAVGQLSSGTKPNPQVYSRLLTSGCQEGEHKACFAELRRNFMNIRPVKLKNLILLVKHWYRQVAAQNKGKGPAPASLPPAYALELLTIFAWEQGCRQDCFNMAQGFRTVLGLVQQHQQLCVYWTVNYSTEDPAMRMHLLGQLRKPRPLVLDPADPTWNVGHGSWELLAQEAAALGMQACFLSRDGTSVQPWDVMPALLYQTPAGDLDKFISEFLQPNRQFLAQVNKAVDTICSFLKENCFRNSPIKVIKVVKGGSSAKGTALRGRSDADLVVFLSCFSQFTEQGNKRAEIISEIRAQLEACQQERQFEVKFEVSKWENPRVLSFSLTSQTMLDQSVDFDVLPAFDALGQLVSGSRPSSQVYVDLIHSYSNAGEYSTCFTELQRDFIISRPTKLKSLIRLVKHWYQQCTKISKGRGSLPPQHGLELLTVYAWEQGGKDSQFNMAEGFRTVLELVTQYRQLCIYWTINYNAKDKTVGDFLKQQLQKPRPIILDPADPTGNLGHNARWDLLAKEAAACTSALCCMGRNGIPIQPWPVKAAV

Protein sequences, listed by entry. Tags and fused reporters are not part of them. Residues count along the entry.
UniProt Q9Y6N7, residues 26-1651: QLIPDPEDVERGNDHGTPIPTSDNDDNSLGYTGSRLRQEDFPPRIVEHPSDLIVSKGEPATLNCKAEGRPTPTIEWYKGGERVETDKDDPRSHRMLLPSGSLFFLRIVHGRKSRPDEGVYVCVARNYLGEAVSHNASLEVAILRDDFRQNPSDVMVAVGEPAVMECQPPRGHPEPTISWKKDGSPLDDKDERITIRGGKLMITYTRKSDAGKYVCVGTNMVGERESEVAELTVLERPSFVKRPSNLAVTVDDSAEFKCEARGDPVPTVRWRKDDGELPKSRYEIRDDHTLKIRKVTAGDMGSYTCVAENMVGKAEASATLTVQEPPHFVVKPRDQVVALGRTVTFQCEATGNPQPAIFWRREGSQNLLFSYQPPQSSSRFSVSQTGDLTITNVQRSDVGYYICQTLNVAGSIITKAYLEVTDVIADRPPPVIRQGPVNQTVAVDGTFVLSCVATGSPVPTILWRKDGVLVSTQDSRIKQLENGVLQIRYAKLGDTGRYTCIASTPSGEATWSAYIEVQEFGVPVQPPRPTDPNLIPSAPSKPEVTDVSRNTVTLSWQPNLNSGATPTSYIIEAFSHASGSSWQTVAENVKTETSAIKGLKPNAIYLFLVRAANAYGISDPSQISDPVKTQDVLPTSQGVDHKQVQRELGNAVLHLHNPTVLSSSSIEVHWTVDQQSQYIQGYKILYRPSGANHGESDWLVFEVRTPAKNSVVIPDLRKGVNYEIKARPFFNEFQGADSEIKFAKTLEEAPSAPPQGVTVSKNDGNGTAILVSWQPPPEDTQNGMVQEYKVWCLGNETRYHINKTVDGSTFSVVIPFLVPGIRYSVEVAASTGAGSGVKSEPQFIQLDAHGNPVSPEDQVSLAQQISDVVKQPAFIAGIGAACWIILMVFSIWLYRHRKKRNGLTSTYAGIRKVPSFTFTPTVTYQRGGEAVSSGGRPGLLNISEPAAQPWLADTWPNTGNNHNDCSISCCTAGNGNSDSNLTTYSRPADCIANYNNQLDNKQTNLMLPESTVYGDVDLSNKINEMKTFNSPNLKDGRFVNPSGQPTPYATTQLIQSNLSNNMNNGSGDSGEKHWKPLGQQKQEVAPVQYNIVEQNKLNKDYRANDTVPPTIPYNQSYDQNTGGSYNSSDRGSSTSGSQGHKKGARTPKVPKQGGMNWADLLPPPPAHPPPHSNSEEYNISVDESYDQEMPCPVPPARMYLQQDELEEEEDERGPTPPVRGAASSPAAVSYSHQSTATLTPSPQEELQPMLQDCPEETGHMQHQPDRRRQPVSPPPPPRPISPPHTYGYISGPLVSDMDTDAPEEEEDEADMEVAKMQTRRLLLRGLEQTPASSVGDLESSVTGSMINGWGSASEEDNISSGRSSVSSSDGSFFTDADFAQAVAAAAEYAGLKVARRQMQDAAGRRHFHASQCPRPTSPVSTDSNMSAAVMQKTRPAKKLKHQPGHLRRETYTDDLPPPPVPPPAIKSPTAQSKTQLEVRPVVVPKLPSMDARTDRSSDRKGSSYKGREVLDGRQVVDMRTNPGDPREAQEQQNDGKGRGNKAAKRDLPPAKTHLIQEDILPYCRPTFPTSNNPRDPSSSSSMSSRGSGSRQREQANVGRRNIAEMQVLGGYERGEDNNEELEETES
UniProt P42224: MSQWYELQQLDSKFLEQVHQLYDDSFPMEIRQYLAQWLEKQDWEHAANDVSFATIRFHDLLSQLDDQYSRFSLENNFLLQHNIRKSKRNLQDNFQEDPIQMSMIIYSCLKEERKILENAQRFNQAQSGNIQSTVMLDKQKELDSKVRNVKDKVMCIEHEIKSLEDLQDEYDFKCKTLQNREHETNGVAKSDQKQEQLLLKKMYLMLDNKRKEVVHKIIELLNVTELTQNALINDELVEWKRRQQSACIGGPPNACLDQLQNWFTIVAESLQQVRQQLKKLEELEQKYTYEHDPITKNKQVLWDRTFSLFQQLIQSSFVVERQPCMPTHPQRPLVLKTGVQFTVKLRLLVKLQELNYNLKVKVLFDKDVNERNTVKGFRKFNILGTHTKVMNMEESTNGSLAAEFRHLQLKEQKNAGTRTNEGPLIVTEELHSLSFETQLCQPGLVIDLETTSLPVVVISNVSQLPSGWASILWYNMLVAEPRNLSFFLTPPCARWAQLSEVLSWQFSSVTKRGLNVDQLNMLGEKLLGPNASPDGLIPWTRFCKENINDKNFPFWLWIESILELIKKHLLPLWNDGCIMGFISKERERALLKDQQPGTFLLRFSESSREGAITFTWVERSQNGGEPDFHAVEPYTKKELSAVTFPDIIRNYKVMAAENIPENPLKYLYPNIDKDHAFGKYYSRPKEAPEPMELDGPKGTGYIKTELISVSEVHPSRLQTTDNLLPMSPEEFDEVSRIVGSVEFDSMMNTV
UniProt Q8IY21: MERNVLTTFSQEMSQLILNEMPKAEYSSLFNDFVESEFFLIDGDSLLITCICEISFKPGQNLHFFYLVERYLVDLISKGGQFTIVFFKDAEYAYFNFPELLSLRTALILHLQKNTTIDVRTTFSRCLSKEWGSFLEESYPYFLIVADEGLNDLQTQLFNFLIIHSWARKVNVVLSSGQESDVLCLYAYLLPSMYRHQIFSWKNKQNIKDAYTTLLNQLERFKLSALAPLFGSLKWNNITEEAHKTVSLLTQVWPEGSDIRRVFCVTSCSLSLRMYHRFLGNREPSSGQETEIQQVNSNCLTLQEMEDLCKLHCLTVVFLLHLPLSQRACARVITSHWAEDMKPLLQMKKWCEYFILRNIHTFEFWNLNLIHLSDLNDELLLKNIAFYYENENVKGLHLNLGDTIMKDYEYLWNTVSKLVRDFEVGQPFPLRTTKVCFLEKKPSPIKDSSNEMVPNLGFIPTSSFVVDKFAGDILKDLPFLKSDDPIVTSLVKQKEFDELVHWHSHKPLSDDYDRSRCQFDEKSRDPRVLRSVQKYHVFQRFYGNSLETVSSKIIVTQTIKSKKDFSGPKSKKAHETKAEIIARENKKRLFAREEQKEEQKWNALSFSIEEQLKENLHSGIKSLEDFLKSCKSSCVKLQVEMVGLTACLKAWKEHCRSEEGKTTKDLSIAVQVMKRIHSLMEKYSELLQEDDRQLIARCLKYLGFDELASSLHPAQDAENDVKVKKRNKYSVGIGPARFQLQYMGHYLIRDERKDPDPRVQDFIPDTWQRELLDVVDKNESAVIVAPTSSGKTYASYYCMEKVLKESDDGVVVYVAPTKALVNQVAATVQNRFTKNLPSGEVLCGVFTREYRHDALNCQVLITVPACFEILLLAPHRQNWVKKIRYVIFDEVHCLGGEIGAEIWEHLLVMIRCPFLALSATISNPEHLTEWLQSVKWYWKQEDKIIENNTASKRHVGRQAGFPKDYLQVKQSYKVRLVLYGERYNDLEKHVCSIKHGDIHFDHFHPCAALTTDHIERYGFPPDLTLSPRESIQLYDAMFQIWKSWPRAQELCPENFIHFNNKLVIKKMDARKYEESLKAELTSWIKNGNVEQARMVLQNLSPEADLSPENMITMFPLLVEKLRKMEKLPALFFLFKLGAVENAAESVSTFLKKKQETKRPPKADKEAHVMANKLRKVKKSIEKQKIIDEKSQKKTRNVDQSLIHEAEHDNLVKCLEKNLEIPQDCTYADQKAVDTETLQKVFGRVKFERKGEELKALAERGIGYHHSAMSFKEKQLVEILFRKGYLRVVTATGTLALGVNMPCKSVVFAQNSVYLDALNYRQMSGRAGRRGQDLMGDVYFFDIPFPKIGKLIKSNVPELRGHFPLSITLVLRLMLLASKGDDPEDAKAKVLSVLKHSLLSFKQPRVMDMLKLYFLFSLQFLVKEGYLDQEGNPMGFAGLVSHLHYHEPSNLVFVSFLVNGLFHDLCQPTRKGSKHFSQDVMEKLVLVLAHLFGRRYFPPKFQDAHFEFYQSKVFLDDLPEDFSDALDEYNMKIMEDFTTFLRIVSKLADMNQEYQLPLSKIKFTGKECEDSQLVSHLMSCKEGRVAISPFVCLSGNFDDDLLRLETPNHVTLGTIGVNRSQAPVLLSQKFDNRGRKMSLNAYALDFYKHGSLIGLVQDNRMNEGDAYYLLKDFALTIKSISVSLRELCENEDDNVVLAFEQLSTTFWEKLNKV

[2] = target: ROBO1 (human (endogenous in Flo-1)) (UniProt Q9Y6N7); experiment: as above
[3] = target: STAT1 (human (endogenous in Flo-1)) (UniProt P42224); experiment: as above
[4] = target: DDX60 (human (endogenous in Flo-1)) (UniProt Q8IY21); experiment: cross-linking; in-situ DSS cross-linking (0.5 mM, 5 min, 37 °C, in PBS) of Flo-1 cells treated with 10 ng/ml IFNα14 for 24 h (untreated cells run beside them); tryptic cross-linked peptides by LC-MS/MS, identified with SIM-XL (K-K, K-S, K-N-terminus)
[5] = target: T2, IFIT3 (human (endogenous in Flo-1)) (UniProt O14879); experiment: as above
T2 sequence: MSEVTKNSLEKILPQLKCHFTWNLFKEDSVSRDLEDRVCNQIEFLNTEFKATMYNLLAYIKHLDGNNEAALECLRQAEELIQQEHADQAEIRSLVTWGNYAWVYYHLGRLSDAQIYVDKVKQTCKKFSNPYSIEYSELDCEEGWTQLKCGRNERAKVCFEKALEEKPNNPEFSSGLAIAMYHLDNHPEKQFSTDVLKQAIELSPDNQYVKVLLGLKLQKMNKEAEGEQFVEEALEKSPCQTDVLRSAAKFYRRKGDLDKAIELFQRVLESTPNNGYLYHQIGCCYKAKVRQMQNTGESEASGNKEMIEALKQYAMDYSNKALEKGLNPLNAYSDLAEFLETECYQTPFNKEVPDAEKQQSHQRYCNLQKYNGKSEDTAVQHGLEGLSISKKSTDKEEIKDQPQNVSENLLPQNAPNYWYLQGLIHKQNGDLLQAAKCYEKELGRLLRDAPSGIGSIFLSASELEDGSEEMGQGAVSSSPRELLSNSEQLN

[6] = target: T1, OAS3 (human (endogenous in Flo-1)); experiment: as above
[7] = target: ROBO1 (human (endogenous in Flo-1)) (UniProt Q9Y6N7); experiment: as above
[8] = target: STAT1 (human (endogenous in Flo-1)) (UniProt P42224); experiment: as above

binding [4]: binds
binding [5]: binds
binding [6]: binds
binding [7]: binds
binding [8]: binds
B1: MX1 (protein, UniProt P20591 1-662)
chain: MVVSEVDIAKADPAAASHPLLLNGDATVAQKNPGSVAENNLCSQYEEKVRPCIDLIDSLRALGVEQDLALPAIAVIGDQSSGKSSVLEALSGVALPRGSGIVTRCPLVLKLKKLVNEDKWRGKVSYQDYEIEISDASEVEKEINKAQNAIAGEGMGISHELITLEISSRDVPDLTLIDLPGITRVAVGNQPADIGYKIKTLIKKYIQRQETISLVVVPSNVDIATTEALSMAQEVDPEGDRTIGILTKPDLVDKGTEDKVVDVVRNLVFHLKKGYMIVKCRGQQEIQDQLSLSEALQREKIFFENHPYFRDLLEEGKATVPCLAEKLTSELITHICKSLPLLENQIKETHQRITEELQKYGVDIPEDENEKMFFLIDKVNAFNQDITALMQGEETVGEEDIRLFTRLRHEFHKWSTIIENNFQEGHKILSRKIQKFENQYRGRELPGFVNYRTFETIVKQQIKALEEPAVDMLHTVTDMVRLAFTDVSIKNFEEFFNLHRTAKSKIEDIRAEQEREGEKLIRLHFQMEQIVYCQDQVYRGALQKVREKELEEEKKKKSWDFGAFQSSSATDSSMEEIFQHLMAYHQEASKRISSHIPLIIQFFMLQTYGQQLQKAMLQLLQDKDTYSWLLKERSDTSDKRKFLKERLARLTQARRRLAQFPG
binding [1]: no binding (condition: untreated cells (without IFNα))
binding [2]: no binding (condition: untreated cells (without IFNα))
binding [3]: no binding (condition: untreated cells (without IFNα))

From publication PMC9653400
